From the supplement of paper PMC3334620
The full ranking holds about 33,000 sequences; the median of “E-score (-0.5 to 0.5)” is about -0.0059, and the highest 2% start at about 0.26. The list shows a part of the results.

molecular target: T1, Cin5 (UniProt P40917); experiment: PBM E-score (8-mer binding enrichment) (E-score (-0.5 to 0.5)); higher = stronger / more preferred TF binding; conditions: protein concentration: 100 nM; construct: GST-full length
T1 sequence: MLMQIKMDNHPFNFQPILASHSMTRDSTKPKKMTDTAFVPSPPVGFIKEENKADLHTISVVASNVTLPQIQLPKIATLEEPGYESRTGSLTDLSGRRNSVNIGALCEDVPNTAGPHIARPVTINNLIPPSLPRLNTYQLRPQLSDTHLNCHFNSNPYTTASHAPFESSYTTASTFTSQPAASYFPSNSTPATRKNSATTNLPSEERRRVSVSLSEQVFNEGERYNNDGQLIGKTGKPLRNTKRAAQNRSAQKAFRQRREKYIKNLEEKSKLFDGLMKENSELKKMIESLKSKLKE
Method in brief: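 Universal all-10-mer Agilent arrays, double-stranded by primer extension on fresh or once-stripped slides, were probed with about 100-200 nM GST-tagged yeast transcription factors made by PURExpress. Fluorescent anti-GST detected bound protein, and masliner normalised the scans. E-scores from the Universal PBM Analysis Suite were given to each ungapped eight-base word pooled with its reverse complement.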

Sequence | PBM E-score
CGCTTTGC | 0.0898
AGGCGCAT | -0.04
AGTCACGG | -0.0815
CTAATTCC | 0.05
CACACGCC | -0.0493
ATTTAAAA | 0.115
ATTGTGAC | 0.0953
GTCAAGAA | 0.133
GGGACCTA | -0.0211
CGCACACG | -0.215
AGAGTCTA | -0.229
CCCGGCAC | -0.379
CCCAAGTA | 0.0186
CTAGCAGA | -0.183
AATCAAGG | 0.188
CTGAGGGA | -0.15
GCAGTTTA | -0.0437
GTACGCAA | -0.0571
GGAGTGAA | 0.17
GTGTCGGA | -0.12
TCATTCAA | 0.176
AGGTGTTG | -0.0487

Given as labelled records: entries from further up.
ATTTAAAA
  PBM E-score: 0.115
ATTGTGAC
  PBM E-score: 0.0953
GTCAAGAA
  PBM E-score: 0.133

Next part.

Sequence | PBM E-score
TAGAAGCA | -0.0211
ACCGCACC | -0.016
AACCATAA | 0.152
AGCACCGC | -0.00696
AGCTGAAG | 0.0392
CGAACCTC | -0.0419
AACGGTGC | -0.186
ACTGGGCC | -0.183
CCCAAACC | 0.0865
CAATAATA | 0.276
AAGTGGAA | 0.147
CAGCCTTA | -0.252
CGTCCCCA | -0.0896
GGATTTGA | -0.0253
AAAGCACT | 0.0393
AATACGCC | -0.0343
CTCTGCAC | -0.149
CCGCTATC | 0.0551
AAAGCGAC | 0.0683
ATAAAAAG | 0.204
GGGAATAA | 0.196
ACGGGGGA | -0.263

Sequence | PBM E-score
ACGACCCG | -0.0705
CCATCGCC | -0.118
CACGGTGC | -0.283
CCTATACA | 0.032
CATTATCG | 0.0028
ATCGGTCA | -0.0437
GACGGTTA | -0.116
GAATAATA | 0.291
ACAAGGAT | 0.065
CTACGTAC | -0.041
ACGGAACC | 0.151
CTGGTGAA | -0.149
ATACACAT | 0.204
GTACAGCA | -0.134
ACAGATAC | 0.0834
AGGTTTTC | 0.00375
ACCTTAAA | -0.0538
AATTCGGT | 0.194
AGCCTAGG | -0.28
GGTATCAC | 0.0115
GGCATCAC | -0.114
ACTTAATC | 0.133

Sequence | PBM E-score
ACGATTGC | 0.153
GTCACCTA | -0.196
GTCAGTCA | -0.0842
CTGTATAC | 0.116
GCGCTGAC | 0.187
CTGCACCC | -0.169
ATGACGGC | -0.0843
CGAGGAAA | 0.0743
CTATTTTC | 0.0963
CGCAGACA | 0.0507
CATAGTGA | -0.0441
ATGGTCAA | 0.128
CATCCCAG | -0.148
ATATTCCA | 0.274
CATATACA | 0.187
CTAGGTAC | -0.121
GGATGCCC | -0.237
ACCGAGCT | -0.0745
TCGTTGAA | -0.0113
AAATCCTC | -0.137
ATAACTCC | -0.086
AAGGTACA | -0.0396

Sequence | PBM E-score
CGCTAAAG | 0.0272
AAAAGTCA | -0.0391
CAAAGAGA | -0.0122
ACTTGTGC | -0.0651
AGATATGC | 0.0698
AAGCGTCC | -0.159
CAGCAGAG | -0.0898
GCTGGCCC | -0.269
CTTTACAC | 0.0902
CGGCTAGA | -0.144
ACCGGACA | -0.157
ACGTGGAC | -0.0526
CAAAGCCC | -0.137
AGGAGTTG | -0.108
AACCTTCA | 0.0563
AAGCATAT | 0.13
AACAAGGT | 0.00268
ATAAATTC | 0.0845
CCGCACTC | 0.147
AAGTCTAC | 0.0186
GCCCCAGA | -0.212
